Source: patent US12577231B2, “Androgen receptor PROTACS” (GlaxoSmithKline Intellectual Property Development Limited, priority 2023, dated 2026)
Substitutions are numbered along the chain they refer to. Some results were stated once for a whole list of compounds, not compound by compound.

Tests used:
[1] = biological target: T1, Androgen Receptor, LNCaP (AR T878A) (Homo sapiens, UniProt P10275, T878A); test: Androgen Receptor Degradation-Imaging Assay, LNCaP cell line; format: cell-based; details: 16 hours treatment, immunofluorescence
T1 construct: endogenous in cells; host or cells: LNCaP
T1 sequence (P10275 1-920 T878A): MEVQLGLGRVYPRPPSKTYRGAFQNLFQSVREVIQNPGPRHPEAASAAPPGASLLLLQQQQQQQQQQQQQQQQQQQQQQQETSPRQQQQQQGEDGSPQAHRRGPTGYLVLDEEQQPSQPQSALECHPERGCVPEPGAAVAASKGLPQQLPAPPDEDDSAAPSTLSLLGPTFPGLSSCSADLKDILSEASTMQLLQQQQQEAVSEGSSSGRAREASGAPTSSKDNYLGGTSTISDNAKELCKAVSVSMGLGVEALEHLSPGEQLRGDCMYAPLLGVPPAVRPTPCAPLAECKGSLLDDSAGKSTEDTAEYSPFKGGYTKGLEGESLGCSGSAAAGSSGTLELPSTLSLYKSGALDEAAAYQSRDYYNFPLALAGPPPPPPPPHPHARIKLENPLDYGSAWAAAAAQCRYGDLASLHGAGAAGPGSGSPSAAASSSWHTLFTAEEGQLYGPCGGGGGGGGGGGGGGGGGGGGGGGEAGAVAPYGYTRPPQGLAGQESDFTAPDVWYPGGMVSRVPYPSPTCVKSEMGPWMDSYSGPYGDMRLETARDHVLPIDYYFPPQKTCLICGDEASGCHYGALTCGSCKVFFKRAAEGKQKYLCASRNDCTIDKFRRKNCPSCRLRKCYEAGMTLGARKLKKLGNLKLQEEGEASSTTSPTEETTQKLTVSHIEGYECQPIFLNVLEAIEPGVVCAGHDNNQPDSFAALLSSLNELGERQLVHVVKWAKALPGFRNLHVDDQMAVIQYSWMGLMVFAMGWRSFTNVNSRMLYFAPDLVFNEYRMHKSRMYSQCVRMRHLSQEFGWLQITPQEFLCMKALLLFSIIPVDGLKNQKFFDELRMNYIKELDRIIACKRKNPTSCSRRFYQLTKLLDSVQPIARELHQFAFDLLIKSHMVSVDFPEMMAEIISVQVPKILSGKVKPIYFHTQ
Method: (§1) Degradation of Androgen Receptor (AR) protein in human prostate cancer cell lines (MDA-PCa-2b (AR T878A/L702H), LNCaP (AR T878A), VCaP (AR wild type and amplified) 22RV1 (AR H875Y) and PC3 (AR negative control)) treated with AR PROTACs was quantified using immunofluorescence. Prostate cancer cells were plated (MDA-PCa-2b, and VCaP 16,000 cells/well; LNCaP and 22RV1 32,000 cells/well, and PC3 8,000 cells/well) in an optical bottom 96-well cell culture plate and allowed to attach overnight. The prostate cancer cell lines were treated for 16 hours with a 10-point 3-fold dilution series (dose range=0.02 nM to 333 nM). PC3 is included as an AR negative control and not treated with compound. Cells are fixed and permeabilized with 4% formaldehyde, blocked with 10% goat serum in immunofluorescence (IF) buffer (130 mM NaCl, 7 mM Na2HPO4, 3.5 mM NaH2PO4, 7.7 mM NaN3, 0.1% BSA, 0.2% Triton X, 0.05% Tween 20) prior to overnight incubation with rabbit antibody specific for C terminus of AR (commercially available from RevMaB Biosciences). Following washes with IF buffer, cells were incubated with fluorescent secondary antibody (Goat anti-rabbit Alexa 647; commercially available from Invitrogen) and Hoechst nuclear stain (commercially available from Themo Scientific) prior to quantification of nuclear AR levels via Opera Phenix high-content fluorescent imager using a 40× water objective. Image analysis was performed with Harmony software.
(§2) The averaged nuclear Alexa 647 median fluorescence intensity (MFI) of PC3 cells is subtracted from the nuclear Alexa 647 MFI of PROTAC treated and DMSO control treated cells. % AR remaining is calculated for PROTAC treatments as a percent of the DMSO control (MFI PROTAC treated/MFI DMSO control treated)*100). DC50 and the Dmax values, were obtained from these normalised values fitted with a 4-parameter sigmoidal response curve (Xlfit software). The DC50 is the interpolated concentration of PROTAC corresponding to 50% of the protein being degraded, and the Dmax parameter is the maximum experimentally observed degradation.

[2] = system: Androgen Receptor, 22RV1 (AR H875Y); test: Androgen Receptor Degradation-Imaging Assay, 22RV-1 cell line; format: cell-based, human; details: 22RV-1, 16 hours treatment; for pDC50: immunofluorescence; for Dmax: maximum observed degradation
[3] = biological target: T2, Androgen Receptor, VCaP (AR wild type and amplified) (Homo sapiens, UniProt P10275); test: Androgen Receptor Degradation-Imaging Assay, VCaP cell line; format: cell-based; details: 16 hours treatment, immunofluorescence
T2 construct: endogenous in cells; host or cells: VCaP
T2 sequence (P10275 1-920): T1 sequence (P10275 1-920 T878A) with A878T
Method: as §1, §2

[4] = biological target: T3, Androgen Receptor, MDA-PCa-2b (AR T878A/L702H) (Homo sapiens, UniProt P10275, L702H/T878A); test: Androgen Receptor Degradation-Imaging Assay, MDA-PCa-2b cell line; format: cell-based; details: 16 hours treatment, immunofluorescence
T3 construct: host or cells: MDA-PCa-2b
T3 sequence (P10275 1-920 L702H/T878A): T1 sequence (P10275 1-920 T878A) with L702H
Method: as §1, §2

CC1(C)[C@H](NC(=O)c2ccc(N3CCC(CN4CCC(n5ncc6c(N7CCC(=O)NC7=O)cccc65)CC4)CC3)c(F)c2)C(C)(C)[C@H]1Oc1ccc(C#N)c2ncccc12 [Example 6, N-((1r,3r)-3-((8-Cyanoquinolin-5-yl)oxy)-2,2,4,4-tetramethylcyclobutyl)-4-(4-((4-(4-(2,4-dioxotetrahydropyrimidin-1(2H)-yl)-1H-indazol-1-yl)piperidin-1-yl)methyl)piperidin-1-yl)-3-fluorobenzamide]
pDC50 [1]: ≥ 8.0
pDC50 [2]: ≥ 8.0
Dmax [2]: ≥ 80%
pDC50 [3]: ≥ 8.0
pDC50 [4]: ≥ 7.0

COc1cc(O[C@H]2C(C)(C)[C@H](NC(=O)c3ccc(N4CCC(CN5CCC(n6ccc7c(N8CCC(=O)NC8=O)nccc76)CC5)CC4)c(F)c3)C2(C)C)ccc1C#N [Example 17, N-((1r,3r)-3-(4-Cyano-3-methoxyphenoxy)-2,2,4,4-tetramethylcyclobutyl)-4-(4-((4-(4-(2,4-dioxotetrahydropyrimidin-1(2H)-yl)-1H-pyrrolo[3,2-c]pyridin-1-yl)piperidin-1-yl)methyl)piperidin-1-yl)-3-fluorobenzamide]
pDC50 [1]: ≥ 8.0
pDC50 [2]: ≥ 8.0
Dmax [2]: ≥ 80%
pDC50 [3]: ≥ 8.0
pDC50 [4]: ≥ 7.0

COc1cc(O[C@H]2C(C)(C)[C@H](NC(=O)c3ccc(N4CCC(CN5CCC(n6ncc7c(N8CCC(=O)NC8=O)nccc76)CC5)CC4)c(F)c3)C2(C)C)ccc1C#N [Example 20, N-((1r,3r)-3-(4-Cyano-3-methoxyphenoxy)-2,2,4,4-tetramethylcyclobutyl)-4-(4-((4-(4-(2,4-dioxotetrahydropyrimidin-1(2H)-yl)-1H-pyrazolo[4,3-c]pyridin-1-yl)piperidin-1-yl)methyl)piperidin-1-yl)-3-fluorobenzamide]
pDC50 [1]: ≥ 8.0
pDC50 [2]: ≥ 8.0
Dmax [2]: ≥ 80%
pDC50 [3]: ≥ 8.0
pDC50 [4]: ≥ 7.0

CC1(C)[C@H](NC(=O)c2ccc(N3CCC(CN4CCC(n5ccc6c(N7CCC(=O)NC7=O)ncnc65)CC4)CC3)cc2)C(C)(C)[C@H]1Oc1ccc(C#N)c2ncccc12 [Example 28, N-((1r,3r)-3-((8-Cyanoquinolin-5-yl)oxy)-2,2,4,4-tetramethylcyclobutyl)-4-(4-((4-(4-(2,4-dioxotetrahydropyrimidin-1(2H)-yl)-7H-pyrrolo[2,3-d]pyrimidin-7-yl)piperidin-1-yl)methyl)piperidin-1-yl)benzamide]
pDC50 [1]: ≥ 8.0
pDC50 [2]: ≥ 8.0
Dmax [2]: ≥ 80%
pDC50 [3]: ≥ 8.0
pDC50 [4]: ≥ 7.0

CC1(C)[C@H](NC(=O)c2cc(F)c(N3CCC(CN4CCC(n5ncc6c(N7CCC(=O)NC7=O)cccc65)CC4)CC3)c(F)c2)C(C)(C)[C@H]1Oc1ccc(C#N)c2ncccc12 [Example 30, N-((1r,3r)-3-((8-Cyanoquinolin-5-yl)oxy)-2,2,4,4-tetramethylcyclobutyl)-4-(4-((4-(4-(2,4-dioxotetrahydropyrimidin-1(2H)-yl)-1H-indazol-1-yl)piperidin-1-yl)methyl)piperidin-1-yl)-3,5-difluorobenzamide]
pDC50 [1]: ≥ 8.0
pDC50 [2]: ≥ 8.0
Dmax [2]: ≥ 80%
pDC50 [3]: ≥ 8.0
pDC50 [4]: ≥ 7.0

CC1(C)[C@H](NC(=O)c2ccc(N3CCC(CN4CCC(n5ncc6c(N7CCC(=O)NC7=O)nccc65)CC4)CC3)c(F)c2)C(C)(C)[C@H]1Oc1ccc(C#N)c2ncccc12 [Example 39, N-((1r,3r)-3-((8-Cyanoquinolin-5-yl)oxy)-2,2,4,4-tetramethylcyclobutyl)-4-(4-((4-(4-(2,4-dioxotetrahydropyrimidin-1(2H)-yl)-1H-pyrazolo[4,3-c]pyridin-1-yl)piperidin-1-yl)methyl)piperidin-1-yl)-3-fluorobenzamide]
pDC50 [1]: ≥ 8.0
pDC50 [2]: ≥ 8.0
Dmax [2]: ≥ 80%
pDC50 [3]: ≥ 8.0
pDC50 [4]: ≥ 7.0
